Source: PubChem BioAssay AID1487 (National Center for Advancing Translational Sciences (NCATS), 2009)
This is one part of the list. Further columns of the screen follow, without active or inactive calls. The list favours compounds with an active or inconclusive main result. Words in brackets tell the shape of the fitted curve; partial curves, single points and poor fits give uncertain potencies.

Test: qHTS Assay for Modulators of Lamin A Splicing
Conditions: HeLa LMNA splicing GFP/RFP minigene ratio, 48 h
Method in brief: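 S3 HeLa cells stably expressing lamin A-EGFP splicing minigene plus DsRed2, 600 cells/well, 48 h compound exposure at 37C. Laser-scanning cytometry; analysed as GFP (500-530 nm)/RFP (575-640 nm) total intensity ratio; 0.5% DMSO vehicle.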

[1] = measured here: RFP viability control channel
[2] = measured here: GFP splicing reporter channel

Structure (SMILES)	AC50 [1]	AC50 [2]
NC(=S)c1ccc[n+]([C@@H]2O[C@@H](COP(=O)([O-])OP(=O)(O)OC[C@H]3O[C@@H](n4cnc5c(N)ncnc54)[C@H](OP(=O)(O)O)[C@H]3O)C(O)C2O)c1 (stereo partly drawn)	5.62 µM [rising, single point]	
CCOC(=O)c1c(C)oc2nc(C)nc(N3CCN(c4cc(Cl)ccc4C)CC3)c12	10 µM [rising, partial curve, poor fit]	0.355 µM [rising, partial curve, poor fit]
CN1N=C(C(=O)N2CCN(c3ccc([N+](=O)[O-])cc3)CC2)CCC1=O		25.1 µM [rising, partial curve, poor fit]
CC1(C)CC(=O)/C(=C(/O)Cc2ccccc2)C(=NCCc2ccccc2)C1	14.1 µM [rising, single point]	35.5 µM [rising, single point]
CCOC(=O)C1C(=O)OC(C)(C)C1C(C)C(=O)c1ccc(C)cc1 (stereo not drawn)	0.398 µM [rising, partial curve, poor fit]	5.62 µM [rising, single point]
CCOC(=O)N1CCC(NC(=O)Cn2ncc3c4ccccc4n(C)c3c2=O)CC1	35.5 µM [rising, single point]	
CC(=O)Cc1cc(O)c2ccccc2c1OC(=O)c1ccccc1	35.5 µM [rising, single point]	
COc1ccccc1CNCCCCCCNCCCCCCCCNCCCCCCNCc1ccccc1OC	0.000794 µM [falling, full curve, poor fit]	25.1 µM [rising, single point]
Cc1ccc(CNC(=O)CN2C(=O)CSc3c2c(C)nn3-c2ccccc2)cc1	31.6 µM [falling, partial curve, poor fit]	0.794 µM [falling, full curve, poor fit]
NNC(=O)C(=O)NCCCN1CCOCC1	25.1 µM [falling, partial curve]	11.2 µM [falling, partial curve]
COC(=O)CCCCCCCCCC[N+]1(C)CCCCC1	12.6 µM [rising, partial curve, poor fit]	17.8 µM [rising, partial curve]
c1ccc(CNc2ncnc3c2cnn3Cc2ccccc2)cc1	7.94 µM [rising, partial curve]	
CCC(=O)N1CCN(c2ccc(Cl)cc2NC(=O)c2ccc3c(c2)OCCO3)CC1	11.2 µM [rising, single point]	8.91 µM [rising, partial curve]
N#CC1=C(SCC(=O)NC23CC4CC(CC(C4)C2)C3)NC(=O)C(C#N)C12CCCCC2 (stereo not drawn)	12.6 µM [rising, partial curve, poor fit]	
COc1ccc(S(=O)(=O)Nc2cc(Sc3ncn[nH]3)c(O)c3ccccc23)cc1	3.98 µM [falling, full curve]	3.98 µM [falling, full curve]
CSc1c(CC(=O)Nc2ccccc2Cl)n(Cc2ccccc2)c2ccccc12	20 µM [falling, single point]	
Cc1ccc(C(=O)NC(=S)N2CCN(c3ccccc3F)CC2)cc1	31.6 µM [rising, single point]	35.5 µM [rising, single point]
O=C(NCc1ccccc1Br)c1ccc2c(c1)nc1n2CCOC1		7.94 µM [falling, partial curve, poor fit]
Cc1c(C#N)c(N)nc2c3c(sc12)NC(=O)CC3c1ccccc1 (stereo not drawn)		5.62 µM [rising, single point]
Cc1cnc(NC(=O)CCCc2nc3ccccc3s2)s1	12.6 µM [falling, partial curve]	35.5 µM [falling, single point]
CCC(=O)N1c2ccc(S(=O)(=O)CCC(=O)Nc3nccs3)cc2CC1C (stereo not drawn)		11.2 µM [falling, single point]
COc1ccc(NC(=O)CSc2ccc3c(c2)OCCO3)cc1OC	31.6 µM [rising, single point]	35.5 µM [rising, single point]
c1ccc(Nc2nc(-c3ccncc3)cs2)nc1	17.8 µM [rising, single point]	
Cc1cc(NC(=O)CCS(=O)(=O)c2nc(-c3ccccc3)cc(C(F)(F)F)n2)no1		35.5 µM [falling, single point]
Cc1cc(NC(=O)CSc2nnc3c(C)cc4c(C)ccc(C)c4n23)no1	35.5 µM [rising, single point]	
CCCCc1nc2c(c3c1C[C@H](C)OC3)CN(S(=O)(=O)c1ccc(NC(C)=O)cc1)CC2		0.0562 µM [rising, full curve, poor fit]
CCc1ccc(/C=C/C(=O)c2ccc(N3CCOCC3)cc2)cc1	35.5 µM [rising, single point]	

An excerpt taken from the entries so far:
Structure (SMILES)	AC50 [1]	AC50 [2]
COC(=O)CCCCCCCCCC[N+]1(C)CCCCC1	12.6 µM [rising, partial curve, poor fit]	17.8 µM [rising, partial curve]
c1ccc(CNc2ncnc3c2cnn3Cc2ccccc2)cc1	7.94 µM [rising, partial curve]	
CCC(=O)N1CCN(c2ccc(Cl)cc2NC(=O)c2ccc3c(c2)OCCO3)CC1	11.2 µM [rising, single point]	8.91 µM [rising, partial curve]
N#CC1=C(SCC(=O)NC23CC4CC(CC(C4)C2)C3)NC(=O)C(C#N)C12CCCCC2 (stereo not drawn)	12.6 µM [rising, partial curve, poor fit]	
COc1ccc(S(=O)(=O)Nc2cc(Sc3ncn[nH]3)c(O)c3ccccc23)cc1	3.98 µM [falling, full curve]	3.98 µM [falling, full curve]
CSc1c(CC(=O)Nc2ccccc2Cl)n(Cc2ccccc2)c2ccccc12	20 µM [falling, single point]	
Cc1ccc(C(=O)NC(=S)N2CCN(c3ccccc3F)CC2)cc1	31.6 µM [rising, single point]	35.5 µM [rising, single point]
O=C(NCc1ccccc1Br)c1ccc2c(c1)nc1n2CCOC1		7.94 µM [falling, partial curve, poor fit]
Cc1c(C#N)c(N)nc2c3c(sc12)NC(=O)CC3c1ccccc1 (stereo not drawn)		5.62 µM [rising, single point]
Cc1cnc(NC(=O)CCCc2nc3ccccc3s2)s1	12.6 µM [falling, partial curve]	35.5 µM [falling, single point]
CCC(=O)N1c2ccc(S(=O)(=O)CCC(=O)Nc3nccs3)cc2CC1C (stereo not drawn)		11.2 µM [falling, single point]
COc1ccc(NC(=O)CSc2ccc3c(c2)OCCO3)cc1OC	31.6 µM [rising, single point]	35.5 µM [rising, single point]
c1ccc(Nc2nc(-c3ccncc3)cs2)nc1	17.8 µM [rising, single point]	
Cc1cc(NC(=O)CCS(=O)(=O)c2nc(-c3ccccc3)cc(C(F)(F)F)n2)no1		35.5 µM [falling, single point]
Cc1cc(NC(=O)CSc2nnc3c(C)cc4c(C)ccc(C)c4n23)no1	35.5 µM [rising, single point]	
CCCCc1nc2c(c3c1C[C@H](C)OC3)CN(S(=O)(=O)c1ccc(NC(C)=O)cc1)CC2		0.0562 µM [rising, full curve, poor fit]
CCc1ccc(/C=C/C(=O)c2ccc(N3CCOCC3)cc2)cc1	35.5 µM [rising, single point]	

(continued)

Structure (SMILES)	AC50 [1]	AC50 [2]
O=C1C2CCCCN2C(=O)N1CCCCN1CCN(c2ccc([N+](=O)[O-])cc2)CC1 (stereo not drawn)	12.6 µM [rising, single point]	
Clc1ccccc1Cn1nc(-c2ccccc2)nc1-c1ccccc1	17.8 µM [rising, partial curve]	
CC(NC(=O)CCC(=O)N1CCN(S(=O)(=O)c2ccc(Cl)cc2)CC1)c1ccccc1 (stereo not drawn)	14.1 µM [rising, single point]	10 µM [rising, partial curve]
Cc1ccc2c(c1)nnn2C1CCN(S(=O)(=O)c2ccc(C(=O)NC3CCCC3)cc2)CC1	7.08 µM [rising, partial curve]	
O=S(=O)(c1ccc(Br)cc1)N1CCCN(Cc2cccc(F)c2)CC1		14.1 µM [rising, single point]
CCN(c1ccc(OCC(=O)OCC(=O)c2c(N)n(C)c(=O)n(C)c2=O)cc1)S(=O)(=O)c1ccccc1	11.2 µM [rising, partial curve, poor fit]	
CCCCSc1nnc(-c2ccc(C)cc2)c2ccccc12	14.1 µM [rising, partial curve, poor fit]	
COCCN(Cc1cc2cc3c(cc2nc1Cl)OCO3)C(=O)Nc1ccc(F)cc1	10 µM [rising, partial curve]	
COc1ccc(-c2cn3c(n2)sc2cc(C(=O)Nc4cccc(SC)c4)ccc23)cc1		0.0891 µM [falling, full curve]
COc1ccc2c(C=Nc3c(C)n(C)n(-c4ccccc4)c3=O)c(O)n(Cc3ccco3)c(=O)c2c1	7.94 µM [rising, partial curve]	
COCCn1c(C)cc(C(=O)COC(=O)c2c(C)nn(Cc3ccccc3)c2C)c1C	35.5 µM [rising, single point]	
COc1ccc(NC(=O)NCCN2CCN(c3cccc(Cl)c3)CC2)cc1	35.5 µM [rising, partial curve]	
O=c1[nH][nH]cc1C=Nc1ccc(Cl)cc1Cl	0.00282 µM [falling, full curve]	
O=S(=O)(NCCC1=CCCCC1)c1cccc(S(=O)(=O)N2CCOCC2)c1	22.4 µM [rising, single point]	
Cc1ccc(NC(=O)c2cc(N3C(=O)C=CC3=O)ccc2N2CCOCC2)cc1	10 µM [falling, partial curve]	12.6 µM [falling, partial curve]
NS(=O)(=O)c1cc2c(cc1C(F)(F)F)N[C@H](Cc1ccccc1)NS2(=O)=O	14.1 µM [rising, single point]	
CCCNC(=O)Cn1c(=O)/c(=C\c2ccc(-c3ccc([N+](=O)[O-])cc3)o2)s/c1=C\C(=O)C(C)(C)C	0.398 µM [falling, full curve, poor fit]	0.398 µM [falling, full curve, poor fit]
CCCSc1nc2cc(C)c(C)cc2n1CC(C)O (stereo not drawn)		1.26 µM [falling, full curve, poor fit]
O=C(NCc1ccco1)c1cc([N+](=O)[O-])ccc1Cl		1.58 µM [rising, partial curve]
O=c1[nH]cnc2c1c(-c1ccccc1)cn2-c1ccc(Br)cc1	35.5 µM [rising, single point]	
CCOc1ccc(CC2c3cc(OCC)c(OCC)cc3CCN2C(=O)c2cc(OC)c(OC)c(OC)c2)cc1OCC (stereo not drawn)	22.4 µM [rising, single point]	14.1 µM [rising, single point]
COC(=O)c1sccc1NC(=S)N1CCN(c2cc(C)ccc2C)CC1	35.5 µM [rising, single point]	15.8 µM [rising, single point]
Cc1ccc(NC(=O)Cn2c(=O)ccc3cc(S(=O)(=O)N4CCC(C)CC4)ccc32)c(C)c1	35.5 µM [falling, single point]	35.5 µM [falling, single point]
COCCCNC(=O)C1CCC(CNS(=O)(=O)c2ccc(OC)cc2)CC1 (stereo not drawn)	0.178 µM [falling, full curve]	
CCNC(=S)NN=C1c2ccccc2-c2ccccc21	2.82 µM [falling, single point]	17.8 µM [falling, partial curve]
Cc1cc(C(=O)COC(=O)c2ccccc2O)c(C)n1Cc1cccs1	31.6 µM [rising, single point]	
COc1cc(NC(=O)COC(=O)/C=C/c2ccc(Cl)cc2Cl)cc(OC)c1		35.5 µM [rising, single point]
